Data published in PubChem BioAssay AID504834 (National Center for Advancing Translational Sciences (NCATS), 2011).
Screen size: about 320,000 compounds; about 22,000 (6.9%) were called active. This list was built around the results that the source calls inconclusive (neither active nor inactive); the mix of calls is not that of the screen. Calls follow the shape of the dose curve; as a rule, active = well fitted inhibition curve with a large enough effect; inconclusive = small, poorly fitted or top-dose-only effect, or another doubt; inactive = no such curve, though single readings can be large or run the other way. Potencies beside an inconclusive call are fits to weak or partial responses and may not hold up.

Experiment: Primary qHTS for delayed death inhibitors of the malarial parasite plastid, 96 hour incubation
Conditions: P. falciparum luciferase reporter growth; series mostly up to 28.7 µM
Procedure, shortened: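 P. falciparum expressing integrated firefly luciferase, in erythrocytes at 2% hematocrit, 0.05% parasitemia, incubated with compounds 96 h at 37 C, 5% CO2. Growth inhibition read as loss of luminescence; two-generation exposure targets delayed-death apicoplast inhibitors.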
Potency is read from the fitted curve at half-maximal effect.

Compound	Potency
CCN(CC)S(=O)(=O)c1cc(F)ccc1OC	inconclusive: 11.7 µM [inhibitor, single point]
COC(=O)c1sc(N)c(C(=O)OC)c1Cn1ncc(Cl)c(Cl)c1=O	active: 8.28 µM
Cc1c(Cc2ccccc2)c(=O)oc2cc(OC(=O)c3ccccc3)ccc12	inconclusive: 11.7 µM [inhibitor, single point]
Fc1ccc(C2N(c3ccccc3)C(=S)N3CCCN23)cc1 (stereo not drawn)	inconclusive: 9.28 µM [inhibitor, single point]
Cc1cccc(C2c3[nH]c4ccccc4c3CCN2C(=O)CN2CCOC2=O)n1 (stereo not drawn)	inconclusive: 10.4 µM [inhibitor, single point]
Cn1c(Sc2ccc(Cl)cc2)c(C=O)c2ccccc21	inconclusive: 1.85 µM [inhibitor, partial curve, poor fit]
COC(=O)c1ccc(N=NN2CCCCC2)cc1	inactive
O=C1NN(c2ccccc2)C(=O)/C1=C/c1ccc(-c2ccc(C(=O)O)cc2)o1	inconclusive: 18.5 µM [inhibitor, single point]
CCOc1ccc(NC(=O)CN(c2ccc([N+](=O)[O-])cc2)S(=O)(=O)c2ccccc2)cc1	inactive
COCCCN(C(=O)CSCc1c(C)noc1C)c1c(N)n(Cc2ccccc2)c(=O)[nH]c1=O	inconclusive: 10.4 µM [inhibitor, partial curve]
Cc1ccc(-c2ccc(=O)n(Cc3ccc(F)cc3)n2)cc1	inactive
CCC(C)[C@H](NC(=O)N1CC(=O)Nc2ccccc21)C(=O)N[C@@H](Cc1c[nH]c2ccccc12)C(=O)O (stereo partly drawn)	inconclusive: 20.8 µM [inhibitor, partial curve, poor fit]
CCOC(=O)c1c(NC(=O)COc2ncnc3ccccc23)sc(C)c1C	inconclusive: 0.104 µM [inhibitor, partial curve, poor fit]
COc1ccc(N2CCN(C(=O)COc3ccc4ccccc4c3)CC2)cc1	active: 9.28 µM
Cc1ccccc1S(=O)(=O)N1[C@@H](c2cccc(Cl)c2)C(C(=O)O)=CC[C@H]1c1ccc(Cl)cc1	inconclusive: 18.5 µM [inhibitor, single point]
CC(C)N(C(=O)CSc1nc2ccccc2n1Cc1ccccc1)C(C)C	inactive
Cc1cccc(-n2nnnc2SCn2nnc3ccccc3c2=O)c1	inconclusive: 10.4 µM [inhibitor, single point]
Cc1nc2ccc(C(=O)OCc3nnc(-c4ccccc4)o3)cc2nc1C	active: 13.1 µM
COc1cc(NC(=O)Nc2cccc(Cl)c2)c(C(=O)O)cc1OC	inactive
CNC(=O)COc1coc(CN2CCN(c3ccccc3OC)CC2)cc1=O	inconclusive: 11.7 µM [inhibitor, partial curve, poor fit]
CC(NC(=O)c1cccc(S(=O)(=O)N2CCN(C)CC2)c1)C1CC2CCC1C2 (stereo not drawn)	inactive
CCOC(=O)N1CCN(C(=O)CCCn2c(=O)[nH]c3ccccc3c2=O)CC1	inconclusive: 18.5 µM [inhibitor, single point]
Cc1cc(C(=O)NC2CCCN(Cc3ccccc3F)C2)no1 (stereo not drawn)	inconclusive: 18.5 µM [inhibitor, single point]

Compound	Potency
Oc1ccc(-c2csc(-c3cccnc3)n2)c(O)c1	inconclusive: 13.1 µM [inhibitor, partial curve, poor fit]
Cn1c(N)c(C(=O)COC(=O)c2cc(C3CC3)nc3ccccc23)c(=O)n(C)c1=O	inconclusive: 18.5 µM [inhibitor, single point]
CC1CCN(c2ccc(NC(=O)c3cccnc3Cl)cc2)CC1	active: 10.4 µM
N/C(=N\[N+](=O)[O-])N1CCN(C(=O)OC2CCCC2)CC1	inconclusive: 1.31 µM [inhibitor, partial curve, poor fit]
CCOc1ccc2c(c1)sc(=NC(=O)C1CC1)n2C	inconclusive: 20.8 µM [inhibitor, partial curve, poor fit]
O=C(/C=C/c1ccccc1)Nc1cc(S(=O)(=O)N2CCOCC2)ccc1N1CCOCC1	inconclusive: 11.7 µM [inhibitor, partial curve, poor fit]
CC(C)(CNC(=S)NCCc1ccccc1)CNC(=S)NCCc1ccccc1	inconclusive: 8.28 µM [inhibitor, partial curve, poor fit]
COCCNC(=O)c1ccc2c3n(nc2c1)-c1ccc(C)cc1CO3	inactive
O=C(O)c1ccc(-c2nc(-c3ccc(Cl)c(Cl)c3)cs2)cc1	inactive
COC(=O)COc1cc(OCC(=O)OC)c2c(C)c(Cl)c(=O)oc2c1	inconclusive: 4.15 µM [inhibitor, partial curve, poor fit]
CN(C)S(=O)(=O)n1cc(/C=C(\NC(=O)c2ccccc2F)C(=O)NCCCn2ccnc2)c2ccccc21	inactive
CCN(CC(=O)NC(C)C)Cc1nc2c(Br)cc(Br)cc2c(=O)[nH]1	inactive
CCn1c(COc2ccccc2)nnc1SCC(=O)c1cccc([N+](=O)[O-])c1	inconclusive: 10.4 µM [inhibitor, single point]
OC(c1cc(C(F)(F)F)nc2c(C(F)(F)F)cccc12)C1CCCCN1 (stereo not drawn)	active: 0.0037 µM
O=C(COC(=O)c1cccnc1Nc1ccccc1F)NC1CC1	inactive
Cc1ccc(NC(=O)Nc2nnc(Cc3ccc(F)cc3)s2)cc1	inconclusive: 16.5 µM [inhibitor, single point]
CCCn1c(C2CCCN2c2nc(-c3cccc(Br)c3)cs2)nc2ccccc21 (stereo not drawn)	active: 1.85 µM
Cc1c(OC(C)C(=O)NCc2ccccn2)ccc2c3c(c(=O)oc12)CCC3 (stereo not drawn)	inconclusive: 18.5 µM [inhibitor, single point]
Cc1ccc2c(C)nc(N/C(N)=N/S(=O)(=O)c3ccc([N+](=O)[O-])cc3)nc2c1	inconclusive: 18.5 µM [inhibitor, single point]
CCCNC(=O)C1(CC2CC(c3ccccc3)=NO2)CCN(C(=O)c2ccccc2)CC1 (stereo not drawn)	inconclusive: 13.1 µM [inhibitor, single point]
CCCc1nc2oc3c(OC)ncnc3c2c2c1COC(C)(C)C2	active: 6.57 µM
COc1ccc(S(=O)(=O)N2CCN(CC(=O)N3c4ccccc4CC3C)CC2)cc1OC (stereo not drawn)	inconclusive: 3.7 µM [inhibitor, full curve]
CC(=O)C1=C(C)N(Cc2ccccc2)C(=O)N[C@@H]1c1cccc(C(F)(F)F)c1	inconclusive: 13.1 µM [inhibitor, single point]

Compound	Potency
CCN1CCN(C(=O)c2ccc3nc(-c4ccccc4)c(-c4ccccc4)nc3c2)CC1	inconclusive: 18.5 µM [inhibitor, single point]
Cc1cc(NC(=O)CCCN2C(=O)/C(=C/c3ccccc3Cl)SC2=S)no1	inconclusive: 1.65 µM [inhibitor, full curve, poor fit]
Fc1ccccc1C(c1nnnn1C1CCCC1)N1CCN(Cc2ccccc2)CC1 (stereo not drawn)	inactive
N#Cc1ccc(CSc2nnc(-c3ccncc3)n2CCc2ccccc2)cc1	inactive
Cc1nc2sccn2c1-c1nc(-c2cc3ccccc3o2)cs1	inactive
COc1ccc2c(c1)CCC1C2=NN(/C(C)=C/C(C)=O)C1c1cccc(F)c1 (stereo not drawn)	inactive
Cc1ccsc1CN(C)C(=O)CN1C(=O)NC2(CCCc3ccccc32)C1=O (stereo not drawn)	active: 11.7 µM
O=C(NC(=O)N1CCCCCC1)c1ccc(Cl)cc1	inconclusive: 11.7 µM [inhibitor, single point]
COc1cccc(/C=N/NC(=O)c2cc(C34CC5CC(CC(C5)C3)C4)[nH]n2)c1	inconclusive: 5.86 µM [inhibitor, partial curve, poor fit]
O=C(COc1ccccc1)Nc1nc2cc3c(cc2s1)OCCO3	inactive
CC1CCCC(NS(=O)(=O)c2cccc3nsnc23)C1C (stereo not drawn)	inconclusive: 11.7 µM [inhibitor, single point]
Cc1ccc(CNC(=O)CCCCn2c(=O)[nH]c3ccsc3c2=O)cc1	active: 10.4 µM
CC(=O)N1CCc2c(sc3c2c(=O)n(-c2ccccc2)c(=O)n3CC(=O)NCC2CCCO2)C1 (stereo not drawn)	inconclusive: 3.7 µM [inhibitor, full curve]
COc1cc(Cn2c(N)c(C#N)c3nc4ccccc4nc32)cc(OC)c1	active: 2.33 µM
CN(C)N=Nc1ccc(S(=O)(=O)/N=C(\O)c2ccccc2)cc1	inconclusive: 18.5 µM [inhibitor, partial curve, poor fit]
Cc1ccc(/C=N/NC(=O)CSc2nc3ccccc3c(=O)n2-c2ccccc2)s1	inconclusive: 18.5 µM [inhibitor, single point]
CN(Cc1cccc(F)c1)C(=O)c1ccccc1Sc1ccccc1C#N	inconclusive: 18.5 µM [inhibitor, single point]
CCc1ccc(C(=O)CCC(=O)Nc2ccc(OC)c(S(=O)(=O)N3CCCCC3)c2)cc1	inconclusive: 18.5 µM [inhibitor, single point]
O=C(NNc1ncnc2sccc12)c1ccc(Cl)cc1	inactive
Cn1c(=O)c(C(=O)NCCc2ccc(Cl)cc2)c(O)c2ccccc21	inconclusive: 16.5 µM [inhibitor, single point]
COc1ccccc1N1CCN(Cc2nc(N)nc(Nc3ccccc3)n2)CC1	inconclusive: 10.4 µM [inhibitor, partial curve, poor fit]

A run of entries from further up, as a working copy:
Compound	Potency
Fc1ccccc1C(c1nnnn1C1CCCC1)N1CCN(Cc2ccccc2)CC1 (stereo not drawn)	inactive
N#Cc1ccc(CSc2nnc(-c3ccncc3)n2CCc2ccccc2)cc1	inactive
Cc1nc2sccn2c1-c1nc(-c2cc3ccccc3o2)cs1	inactive
COc1ccc2c(c1)CCC1C2=NN(/C(C)=C/C(C)=O)C1c1cccc(F)c1 (stereo not drawn)	inactive
Cc1ccsc1CN(C)C(=O)CN1C(=O)NC2(CCCc3ccccc32)C1=O (stereo not drawn)	active: 11.7 µM
